Earlier results on two substances are cited in article PMC9770967, “Native holdup (nHU) to measure binding affinities from cell extracts” (Science Advances, 2022).

The data set deals with HEK293T cells. The conditions noted are these: estimated total protein concentration; cited from earlier work.

Take “VPS26B: component of the retromer complex”: the “[Protein] (nM) in HEK293T” value was 318 nM.

For the substance SNX1: component of the SNX-BAR complex, the “[Protein] (nM) in HEK293T” value is reported as 484 nM.
